From PubChem BioAssay AID1508600 (Functional Genomics Laboratory (NCATS/FGL), 2020) come the findings set out here.

Out of some 53,000 sequences screened, about 3,700 (7%) were called active.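 How the source made its calls: active means gene knockdowns whose robust z-score for IL-1 alpha signal is at least 2 or at most -2, so actives lie on both sides; inactive means the rest.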 The list shows a part of the results.

This experiment in a line: Components of the Cytosolic LPS Sensing Pathway: Gene Identification via Genome-wide siRNA Screen.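 Further: robust z of the log signal after scaling to non-targeting control siRNA wells of the plate.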 The conditions noted are these: RAW264.7 macrophages, IL-1a HTRF, actives lie on both sides, screened at 100 nM (by protocol), cells primed 5 h with Pam3CSK4 first. An outline of the steps: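 Three distinct siRNAs per gene were tested singly at 100 nM in RAW264.7 macrophages. Following Pam3CSK4 priming and 24 hour LipidA transfection, IL-1a secretion was read by HTRF.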
Regarding GCCACCUUAACAUUAGCCUTT against Osgin1, the z-score is inactive: -0.795. GGAAUAGACAUCAAUGUUATT against Slf1: the z-score was inactive: -0.832.

Turning to CCCUAACUCAGACUCCAUGTT against Pianp, the z-score is inactive: -0.0392. Regarding GCCAAUGAGACUAAAUACGTT against Abca17, the z-score is inactive: 0.856. Regarding CCUACCAGUACCUAGAACUTT against Slc5a5, the z-score was inactive: 1.51. Turning to “CGACUAUAGACUCUUGAAUTT against 1810037I17Rik”, the z-score is inactive: 0.573.

CCAAACCUGAGACCUAUUGTT against Lamb3: the z-score was inactive: -0.922.

As to CGGACACAUUGACUGAAUATT against Adgrl1, the z-score is inactive: -1.45. As for GGAGAUCCUUCAUUACCUGTT against Psap, the z-score was inactive: -1.34. The same measure for GGAGGAAGAAGUAGUACUUTT against Nup43: inactive: 0.921; for GCUCAAGUCGAAAAGUUGCTT against Gpc4: inactive: -0.645; for CGAAGUGAGAAUUGAAUUUTT against Zp2: inactive: 1.51. The same measure for GGAUUCAUUUUGUGAGUGATT against Pax8: inactive: 0.35; for CGCUGAUGAACUCUUUUCUTT against Ces1g: inactive: -0.342; for CCAUUGCAUGCAAUGACUATT against S100a10: inactive: -1.25.

Consider GGCCUUGAGGCUAUUCAUGTT against Stk16, for which the z-score was inactive: 1.2. Take GGAGAAGCAUUAUUUUGAATT against Myb: the z-score was inactive: 0.798. GGACAUUUUCUACGUUGAATT against Phax: the z-score was inactive: 0.974. Regarding GGUGCGUUAUGGGUUUGUUTT against Ppm1b, the z-score is inactive: 1.53.

Take GGUUUGUGGUGGUAUUUAATT against Man2a2: the z-score was active: 2.47.

With GCUGUUUUGGUAGAUUUUGTT against Map3k8, the z-score is inactive: 0.0466.

Regarding GGGUUUCAAUGGCACAAUUTT against Kif3b, the z-score is active: 2.12.

With CCCACUGUGUUUGUAAAGATT against Adgre4, the z-score is inactive: -0.727. The value for GGUCUUCGAUGUCUUGUAGTT against Kdm2a was inactive: -0.49. The same measure for UUAUGACACGCUCAAACUATT against Khdc1a: inactive: 0.47; for CGAAGUGGUUAACCACCUCTT against Spaca9: inactive: -1.01; for CGCAUAAUGGAUGAGAGGATT against Mef2a: inactive: 0.871. The value for GCUAUUGUAGUGGUUACUGTT against Vmn2r57 was active: 2.21; that for CCCAAGAGUGUUUGAGAACTT against Zbtb43 was inactive: 0.213. GGUCGAUUGAUAUACAAAATT against Gdf6: the z-score was inactive: 0.834.

As to GGACAACUUCAACAGCACUTT against Rab13, the z-score is inactive: -1.31. Regarding GGAUCAACGGAUUUUAGAATT against Gcfc2, the z-score was inactive: 1.21. The same measure for CGAGUAUGACACCUUCGACTT against Adgrg3: inactive: -0.424.

For the sequence CCUGCUCCAACGUAAUGUCTT against Ldhc, the z-score is inactive: -0.65. The value for AGAGCAAAAACUCGAGCACTT against Sox15 was inactive: -0.253.

CCAACACCCAAUAAUAGCGTT against Elfn2: the z-score is inactive: -0.231.

For “GCUUGUAAAUGGAACGACATT against 0610012G03Rik”, the z-score is inactive: -0.69.

GGGUUCAUUUCUCAAAAUUTT against Nol7: the z-score was inactive: -0.831.

In the case of GGAAAGUAACUAAAGGCAATT against Arl8b, the z-score is inactive: 0.274. The value for GGCAUAAUGUGAAAAAAUGTT against P2ry10 was inactive: -0.511; that for CCAAUCUUCACAAUGGCUCTT against Smpd1 was inactive: -0.367. The same measure for GGAAAAUCCAGAGGCUACGTT against Creg1: inactive: -0.186; for GGUGACGAGACAUUUAUUATT against Elovl5: inactive: -1.11. The value for GCAAACCCACACGAAGCAATT against BC043934 was inactive: 1.04; that for GGUUAAAUAAUCCACAAGCTT against Fam243 was inactive: 1.21. As for CCUGUCAAUGAAACCAAGCTT against Cox19, the z-score is inactive: 0.678. Consider GGUCUUCCGAUGAACAAUCTT against Etfdh, for which the z-score was inactive: 1.23. GGAACAGAAAUUCUAUGAGTT against Ip6k3: the z-score is inactive: 0.097. Consider GCCAGGUUGACAAUGGUUCTT against Ttf2, for which the z-score was inactive: 1.57. In the case of GCAACUAUCCACUCUCUGCTT against Emg1, the z-score is inactive: 0.977. The same measure for GGGCGAAAGCCAAUUUUAGTT against Ddx3y: inactive: 0.216; for GGCAAUUGUGUAUCAAUAUTT against Acadl: inactive: -0.578.

In the case of GGAAGAUGACAGUGCUGUATT against Utp25, the z-score was inactive: -0.868. The value for GGUUCACUCUGAAGACACCTT against Pkig was inactive: 0.0516; that for CCCUAGAAGAAUCAAGCUCTT against Prune2 was inactive: -1.35. As to GGACUUUGCCAUUCUUCACTT against Krtap6-1, the z-score is inactive: -0.567. GGGACACAAUUCUUUGAAATT against Vash1: the z-score is inactive: -1.69. With GCGACACAUUCGAUCUCAGTT against Mecom, the z-score was active: 4.11.

As for GGCAUUCUGAAAAAAUAGCTT against Rb1cc1, the z-score was inactive: -1.55.

As to GGCUACACAAGAAGAUUCUTT against Tsks, the z-score was inactive: 0.737. As for CCAGUGUGGAGGAAAGUACTT against Nrsn2, the z-score is inactive: -0.752.

Consider GGUGUCAUCCCUGAAAGAGTT against Tert, for which the z-score was inactive: 0.0314. The value for GGUAGACCCUUUUUUUAAGTT against Tgm4 was inactive: 0.432. The value for GGUAAUUACUUUCAUAAGGTT against Txnrd1 was inactive: -0.264. The value for GGUAGUUUCUGGACAAAAGTT against Cip2a was inactive: 0.85. Turning to “GGUUAGAAAACAAUAUCAGTT against 9530053A07Rik”, the z-score is inactive: 0.88.

Consider GCAACUUACUGGUAACUCCTT against Slc7a11, for which the z-score is inactive: 0.829.

On to GGCAAUGGUUCAGGAGAAATT against Col25a1, for which the z-score was inactive: 0.232.

GGAUUUGUUAAAGAUUCCGTT against Cpd: the z-score is inactive: 0.792. The value for GGUCAUCUGCCACAUGGCATT against Tex19.2 was inactive: 1.57; that for GGAACACUACCGUUUUGGGTT against Ehd2 was active: 2.55. GGAGCAAAGGAACAUGAAGTT against Slc12a6: the z-score was inactive: 1.01. The value for GGUGGUAGCUUUGUACUUUTT against Nxnl2 was inactive: 0.829; that for GGAGGAAAAUGUCCUUGUUTT against Pth was inactive: 0.25; that for GGAAGAACGAAAAUAUCUGTT against Spata1 was inactive: -1.12. The value for GGAAAGGUCAAGAGAAUUUTT against Strn3 was inactive: -1.16; that for CCGAGUGCCGACAAAGUGATT against Ccdc22 was inactive: 1.6. The same measure for “GGCCAACCUAAGUCUCAUATT against B830017H08Rik”: inactive: -1.16; for GGAUGUGUCGGGAAAUGCUTT against Frmd5: inactive: -1.7. As for GGCUAUUUUGGGACGGCUUTT against Slc16a14, the z-score was inactive: -0.449. The same measure for GGCGUGUAUGUCAAAAAUATT against Grip1: inactive: -0.201.

For the sequence GGCCUUUAUUCUAUGCAGUTT against Htr3a, the z-score is inactive: 1.59. The same measure for CCAUUUGGCUCACAGUACGTT against Rbck1: inactive: -0.449. For GGGAUUCUGCUGGCUAUGATT against Olfr641, the z-score was inactive: 1.93.

In the case of GGUAGAUAAUGAAGACAUCTT against Frk, the z-score is inactive: 0.302. For GGAAGUGCUAAAGAAGUACTT against Dtx4, the z-score was inactive: -1.12.

GGACUUUCUAAGGGUAAAATT against Luzp1: the z-score was inactive: -0.0646. As to CGCUGAAGUCUUUUCACAATT against Baiap2, the z-score was inactive: 0.286. For the sequence GGUUUUACCAGAAAUUCAGTT against Lactb2, the z-score was inactive: 1.09.

Regarding UGUCCAACAAGCUCUGUACTT against Olfr202, the z-score is inactive: -0.156. The same measure for CCACCGUUGUGGAAGAAUCTT against Apol10b: inactive: 0.296; for CCUGUUCACAACUUUCCUATT against Olfr1241: inactive: 0.895; for GGACAGAUAGUGAAAGAUATT against Tmem130: inactive: -1.95.

As for CCAAUUGAGGCUGACGUGATT against Dld, the z-score was inactive: 0.182.

For CCAUCUCAGGUGCAAUUUGTT against Ttc6, the z-score is inactive: -0.67. On to GCUUUACUCCCUAAAUUCATT against Dmrt3, for which the z-score was inactive: 0.755.

On to GGCAAGUUAAGGUAUAUGGTT against Efl1, for which the z-score was inactive: -0.153.

Consider GGUCUUGACACUUCAAAGATT against Plin4, for which the z-score was inactive: 0.36. With GGAUUUUUCCAUAAAAACCTT against B3galnt1, the z-score is inactive: 1.04. The value for GGACUUCAGCAACUAUAGUTT against Ggt7 was inactive: -0.631; that for CCAUUGGUUAGUGAAGAUUTT against Tmprss11c was inactive: -1.86; that for GGUGGAAAUUCCUUAAAUATT against Herc2 was inactive: -0.626. The same measure for GGGAAAGAGUUUUACAAACTT against Ttc22: active: 2.74.

In the case of CCAUAGGAGAUCUGUUUUATT against Ripk4, the z-score was inactive: 0.321.

For the sequence GGCUUACUAACAGUUUUUGTT against Gem, the z-score was inactive: -0.29. Regarding CUACACUCUCAUUAUGAACTT against Olfr138, the z-score is inactive: 1.16. For the sequence CGAGUUUGACCGGACCAUCTT against Ssna1, the z-score was active: 2.44.
